Some targets named below: Halo-SIN3A_Δ3; Halo-SIN3A_Δ5; Halo-SIN3A_Δ7_968-1186; Halo-SIN3A_Δ8; Halo-SIN3A_Δ6; Halo-SIN3A_Δ4.
What all share (assay): affinity purification with mass spectrometry
The target in the next test is T1, Halo-FAM60A_Δ1 (UniProt Q9NP50).
T1 sequence: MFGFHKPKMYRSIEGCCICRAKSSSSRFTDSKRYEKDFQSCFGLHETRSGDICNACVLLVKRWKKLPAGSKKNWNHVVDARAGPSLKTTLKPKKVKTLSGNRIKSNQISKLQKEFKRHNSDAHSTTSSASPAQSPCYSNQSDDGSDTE

Sequences of proteins named here, by UniProt entry; tags and fusion partners are left off.
UniProt Q92769: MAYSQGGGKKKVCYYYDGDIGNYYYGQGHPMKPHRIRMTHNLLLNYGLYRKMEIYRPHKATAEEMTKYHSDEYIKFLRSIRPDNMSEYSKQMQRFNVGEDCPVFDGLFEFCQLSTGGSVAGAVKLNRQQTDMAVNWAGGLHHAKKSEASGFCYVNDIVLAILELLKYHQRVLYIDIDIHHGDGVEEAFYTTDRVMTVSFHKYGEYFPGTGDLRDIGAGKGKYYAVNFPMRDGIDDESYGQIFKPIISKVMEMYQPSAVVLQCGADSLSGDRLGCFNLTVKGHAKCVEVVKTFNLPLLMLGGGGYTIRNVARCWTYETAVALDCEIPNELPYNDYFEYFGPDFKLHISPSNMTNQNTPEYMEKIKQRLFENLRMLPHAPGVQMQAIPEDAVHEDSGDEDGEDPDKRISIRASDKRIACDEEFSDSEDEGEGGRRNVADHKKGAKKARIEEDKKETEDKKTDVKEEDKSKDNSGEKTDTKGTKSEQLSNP
UniProt Q13547: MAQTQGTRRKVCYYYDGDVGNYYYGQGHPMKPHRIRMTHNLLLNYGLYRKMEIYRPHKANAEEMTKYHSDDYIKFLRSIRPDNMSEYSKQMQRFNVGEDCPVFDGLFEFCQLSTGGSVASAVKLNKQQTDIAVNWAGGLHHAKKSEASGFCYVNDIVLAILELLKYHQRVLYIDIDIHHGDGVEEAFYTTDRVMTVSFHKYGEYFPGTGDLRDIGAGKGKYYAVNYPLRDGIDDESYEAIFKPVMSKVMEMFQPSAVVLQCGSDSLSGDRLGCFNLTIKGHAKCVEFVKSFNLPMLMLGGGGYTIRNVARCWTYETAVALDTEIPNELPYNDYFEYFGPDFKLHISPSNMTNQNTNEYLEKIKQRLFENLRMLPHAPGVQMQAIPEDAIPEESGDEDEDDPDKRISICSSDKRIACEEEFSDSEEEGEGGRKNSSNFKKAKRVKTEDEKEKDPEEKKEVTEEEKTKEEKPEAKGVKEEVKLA
UniProt P06748: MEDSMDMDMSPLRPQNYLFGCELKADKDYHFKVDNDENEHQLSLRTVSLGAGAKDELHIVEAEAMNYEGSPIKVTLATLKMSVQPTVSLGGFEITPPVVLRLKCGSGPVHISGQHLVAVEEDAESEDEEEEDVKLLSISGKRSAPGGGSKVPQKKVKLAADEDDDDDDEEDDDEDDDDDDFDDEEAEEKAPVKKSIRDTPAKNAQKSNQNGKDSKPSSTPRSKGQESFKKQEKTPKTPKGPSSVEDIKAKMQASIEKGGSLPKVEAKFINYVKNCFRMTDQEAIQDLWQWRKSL

A further test has as its target T2, Halo-FAM60A_Δ4 (UniProt Q9NP50).
T2 sequence: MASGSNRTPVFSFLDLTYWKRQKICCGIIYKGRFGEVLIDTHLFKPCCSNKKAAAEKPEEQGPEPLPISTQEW

The target of the next test is T3, Halo-SIN3A (UniProt Q96ST3).
T3 sequence: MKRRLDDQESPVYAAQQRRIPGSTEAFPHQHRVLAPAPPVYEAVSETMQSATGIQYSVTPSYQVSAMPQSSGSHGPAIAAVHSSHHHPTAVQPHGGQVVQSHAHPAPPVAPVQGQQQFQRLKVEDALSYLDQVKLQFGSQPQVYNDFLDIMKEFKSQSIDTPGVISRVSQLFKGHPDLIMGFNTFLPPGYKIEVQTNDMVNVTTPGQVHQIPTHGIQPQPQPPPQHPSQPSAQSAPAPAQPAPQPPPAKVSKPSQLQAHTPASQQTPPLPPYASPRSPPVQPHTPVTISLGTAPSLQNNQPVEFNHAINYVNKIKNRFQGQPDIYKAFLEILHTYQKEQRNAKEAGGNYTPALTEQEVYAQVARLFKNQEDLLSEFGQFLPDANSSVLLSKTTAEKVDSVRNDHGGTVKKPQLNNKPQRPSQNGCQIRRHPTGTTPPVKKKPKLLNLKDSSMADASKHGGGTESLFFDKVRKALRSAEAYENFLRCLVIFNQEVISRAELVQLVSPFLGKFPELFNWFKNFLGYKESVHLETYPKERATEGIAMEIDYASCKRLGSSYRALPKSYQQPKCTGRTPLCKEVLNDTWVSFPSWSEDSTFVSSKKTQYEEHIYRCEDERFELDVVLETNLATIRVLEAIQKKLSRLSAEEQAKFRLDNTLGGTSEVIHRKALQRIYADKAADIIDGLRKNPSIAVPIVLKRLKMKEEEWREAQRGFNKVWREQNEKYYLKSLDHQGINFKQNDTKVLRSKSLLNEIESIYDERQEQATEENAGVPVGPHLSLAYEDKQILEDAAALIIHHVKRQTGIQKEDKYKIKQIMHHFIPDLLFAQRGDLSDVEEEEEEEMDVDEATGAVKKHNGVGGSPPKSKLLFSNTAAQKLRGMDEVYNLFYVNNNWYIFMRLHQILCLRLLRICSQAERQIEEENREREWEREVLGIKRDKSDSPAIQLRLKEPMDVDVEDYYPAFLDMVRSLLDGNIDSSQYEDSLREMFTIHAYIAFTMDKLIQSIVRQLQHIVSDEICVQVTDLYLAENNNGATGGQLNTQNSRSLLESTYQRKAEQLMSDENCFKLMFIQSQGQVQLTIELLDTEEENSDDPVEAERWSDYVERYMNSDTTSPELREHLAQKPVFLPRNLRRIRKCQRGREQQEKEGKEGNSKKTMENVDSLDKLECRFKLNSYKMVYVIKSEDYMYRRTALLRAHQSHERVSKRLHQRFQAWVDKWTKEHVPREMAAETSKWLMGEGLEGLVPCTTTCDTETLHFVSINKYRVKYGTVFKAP

The target of the next test is T4, FAM60A-Halo (UniProt Q9NP50).
T4 sequence: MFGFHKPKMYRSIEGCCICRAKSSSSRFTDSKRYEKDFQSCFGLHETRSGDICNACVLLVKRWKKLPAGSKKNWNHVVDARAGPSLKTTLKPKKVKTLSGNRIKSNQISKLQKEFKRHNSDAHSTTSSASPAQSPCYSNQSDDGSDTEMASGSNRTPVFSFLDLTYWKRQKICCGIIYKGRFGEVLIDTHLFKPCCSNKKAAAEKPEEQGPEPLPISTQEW

Test [1] has as its target T5, Halo-FAM60A (full length) (UniProt Q9NP50).
T5 sequence: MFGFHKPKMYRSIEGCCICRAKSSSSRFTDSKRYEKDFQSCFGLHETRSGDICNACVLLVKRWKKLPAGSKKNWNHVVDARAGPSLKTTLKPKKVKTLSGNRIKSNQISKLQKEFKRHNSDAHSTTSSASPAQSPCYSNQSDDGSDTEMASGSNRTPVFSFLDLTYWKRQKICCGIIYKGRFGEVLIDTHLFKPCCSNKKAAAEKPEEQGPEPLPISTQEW

No constants are given. Whether binding was seen depends on the method and setting. In cells and extracts the contact can be indirect. Here binding means that the protein was enriched with, or labelled near, the bait; the list need not be complete. For some of these results: No binding means not detected with the bait.

Regarding “HDAC2 (endogenous) (from UniProt Q92769 1-488) (enzyme)”, the binding result in the test with Halo-FAM60A_Δ1, in the test with Halo-FAM60A_Δ4 and in the test with Halo-SIN3A was “binds” throughout.

“HDAC1 (endogenous) (from UniProt Q13547 1-482) (enzyme)”: the binding result in the test with Halo-FAM60A_Δ1, with Halo-FAM60A_Δ4 and in the test with Halo-SIN3A was “binds” in each case.

On to “NPM1 (endogenous) (from UniProt P06748 1-294)”, for which the binding entry (in the test with Halo-FAM60A_Δ1; with FAM60A-Halo; in test [1]) was “binds” each time.

B1: SAP130 (endogenous) (protein, UniProt Q9H0E3 1-1048)
chain: MGPPRHPQAGEIEAGGAGGGRRLQVEMSSQQFPRLGAPSTGLSQAPSQIANSGSAGLINPAATVNDESGRDSEVSAREHMSSSSSLQSREEKQEPVVVRPYPQVQMLSTHHAVASATPVAVTAPPAHLTPAVPLSFSEGLMKPPPKPTMPSRPIAPAPPSTLSLPPKVPGQVTVTMESSIPQASAIPVATISGQQGHPSNLHHIMTTNVQMSIIRSNAPGPPLHIGASHLPRGAAAAAVMSSSKVTTVLRPTSQLPNAATAQPAVQHIIHQPIQSRPPVTTSNAIPPAVVATVSATRAQSPVITTTAAHATDSALSRPTLSIQHPPSAAISIQRPAQSRDVTTRITLPSHPALGTPKQQLHTMAQKTIFSTGTPVAAATVAPILATNTIPSATTAGSVSHTQAPTSTIVTMTVPSHSSHATAVTTSNIPVAKVVPQQITHTSPRIQPDYPAERSSLIPISGHRASPNPVAMETRSDNRPSVPVQFQYFLPTYPPSAYPLAAHTYTPITSSVSTIRQYPVSAQAPNSAITAQTGVGVASTVHLNPMQLMTVDASHARHIQGIQPAPISTQGIQPAPIGTPGIQPAPLGTQGIHSATPINTQGLQPAPMGTQQPQPEGKTSAVVLADGATIVANPISNPFSAAPAATTVVQTHSQSASTNAPAQGSSPRPSILRKKPATDGAKPKSEIHVSMATPVTVSMETVSNQNNDQPTIAVPPTAQQPPPTIPTMIAAASPPSQPAVALSTIPGAVPITPPITTIAAAPPPSVTVGGSLSSVLGPPVPEIKVKEEVEPMDIMRPVSAVPPLATNTVSPSLALLANNLSMPTSDLPPGASPRKKPRKQQHVISTEEGDMMETNSTDDEKSTAKSLLVKAEKRKSPPKEYIDEEGVRYVPVRPRPPITLLRHYRNPWKAAYHHFQRYSDVRVKEEKKAMLQEIANQKGVSCRAQGWKVHLCAAQLLQLTNLEHDVYERLTNLQEGIIPKKKAATDDDLHRINELIQGNMQRCKLVMDQISEARDSMLKVLDHKDRVLKLLNKNGTVKKVSKLKRKEKV
B1: in the test with Halo-SIN3A_Δ3, the binding result is “no binding”.

B2: SUDS3 (endogenous) (protein, UniProt Q9H7L9 1-328)
chain: MSAAGLLAPAPAQAGAPPAPEYYPEEDEELESAEDDERSCRGRESDEDTEDASETDLAKHDEEDYVEMKEQMYQDKLASLKRQLQQLQEGTLQEYQKRMKKLDQQYKERIRNAELFLQLETEQVERNYIKEKKAAVKEFEDKKVELKENLIAELEEKKKMIENEKLTMELTGDSMEVKPIMTRKLRRRPNDPVPIPDKRRKPAPAQLNYLLTDEQIMEDLRTLNKLKSPKRPASPSSPEHLPATPAESPAQRFEARIEDGKLYYDKRWYHKSQAIYLESKDNQKLSCVISSVGANEIWVRKTSDSTKMRIYLGQLQRGLFVIRRRSAA
On to B2, for which the results for the binding result with Halo-SIN3A and with Halo-SIN3A_Δ5 were “binds” and “no binding”, respectively.

B3: BRMS1 (endogenous) (protein, UniProt Q9HCU9 1-246)
chain: MPVQPPSKDTEEMEAEGDSAAEMNGEEEESEEERSGSQTESEEESSEMDDEDYERRRSECVSEMLDLEKQFSELKEKLFRERLSQLRLRLEEVGAERAPEYTEPLGGLQRSLKIRIQVAGIYKGFCLDVIRNKYECELQGAKQHLESEKLLLYDTLQGELQERIQRLEEDRQSLDLSSEWWDDKLHARGSSRSWDSLPPSKRKKAPLVSGPYIVYMLQEIDILEDWTAIKKARAAVSPQKRKSDGP
As to B3, the binding entry is “no binding” with Halo-SIN3A_Δ7_968-1186, “no binding” with Halo-SIN3A_Δ8, “no binding” with Halo-SIN3A_Δ6 and “binds” with Halo-SIN3A.

B4: ING1 (endogenous) (protein, UniProt Q9UK53 1-422)
chain: MSFVECPYHSPAERLVAEADEGGPSAITGMGLCFRCLLFSFSGRSGVEGGRVDLNVFGSLGLQPWIGSSRCWGGPCSSALRCGWFSSWPPPSKSAIPIGGGSRGAGRVSRWPPPHWLEAWRVSPLPLSPLSPATFGRGFIAVAVIPGLWARGRGCSSDRLPRPAGPARRQFQAASLLTRGWGRAWPWKQILKELDECYERFSRETDGAQKRRMLHCVQRALIRSQELGDEKIQIVSQMVELVENRTRQVDSHVELFEAQQELGDTAGNSGKAGADRPKGEAAAQADKPNSKRSRRQRNNENRENASSNHDHDDGASGTPKEKKAKTSKKKKRSKAKAEREASPADLPIDPNEPTYCLCNQVSYGEMIGCDNDECPIEWFHFSCVGLNHKPKGKWYCPKCRGENEKTMDKALEKSKKERAYNR
For the molecule B4, the binding result with Halo-SIN3A_Δ7_968-1186 is “no binding”; in the test with Halo-SIN3A_Δ8, “no binding”; with Halo-SIN3A_Δ4, “no binding”; with Halo-SIN3A_Δ6 it was “no binding”; with Halo-SIN3A it was “binds”; with Halo-SIN3A_Δ5 it was “no binding”.

Source of the values: publication doi:10.1101/2024.01.16.575949.
